Data published in patent US7851436.
Results are given in words; binding and its absence hold for the method and conditions named. Binding seen in cells or lysates may run through a third protein. Some binding calls cover weakened binding; strength is not graded here.

Protein sequences, listed by entry. Tags and fused reporters are not part of them. Lines headed by an entry give the natural chain unless they say otherwise; changes in a name come on top.
UniProt P06756: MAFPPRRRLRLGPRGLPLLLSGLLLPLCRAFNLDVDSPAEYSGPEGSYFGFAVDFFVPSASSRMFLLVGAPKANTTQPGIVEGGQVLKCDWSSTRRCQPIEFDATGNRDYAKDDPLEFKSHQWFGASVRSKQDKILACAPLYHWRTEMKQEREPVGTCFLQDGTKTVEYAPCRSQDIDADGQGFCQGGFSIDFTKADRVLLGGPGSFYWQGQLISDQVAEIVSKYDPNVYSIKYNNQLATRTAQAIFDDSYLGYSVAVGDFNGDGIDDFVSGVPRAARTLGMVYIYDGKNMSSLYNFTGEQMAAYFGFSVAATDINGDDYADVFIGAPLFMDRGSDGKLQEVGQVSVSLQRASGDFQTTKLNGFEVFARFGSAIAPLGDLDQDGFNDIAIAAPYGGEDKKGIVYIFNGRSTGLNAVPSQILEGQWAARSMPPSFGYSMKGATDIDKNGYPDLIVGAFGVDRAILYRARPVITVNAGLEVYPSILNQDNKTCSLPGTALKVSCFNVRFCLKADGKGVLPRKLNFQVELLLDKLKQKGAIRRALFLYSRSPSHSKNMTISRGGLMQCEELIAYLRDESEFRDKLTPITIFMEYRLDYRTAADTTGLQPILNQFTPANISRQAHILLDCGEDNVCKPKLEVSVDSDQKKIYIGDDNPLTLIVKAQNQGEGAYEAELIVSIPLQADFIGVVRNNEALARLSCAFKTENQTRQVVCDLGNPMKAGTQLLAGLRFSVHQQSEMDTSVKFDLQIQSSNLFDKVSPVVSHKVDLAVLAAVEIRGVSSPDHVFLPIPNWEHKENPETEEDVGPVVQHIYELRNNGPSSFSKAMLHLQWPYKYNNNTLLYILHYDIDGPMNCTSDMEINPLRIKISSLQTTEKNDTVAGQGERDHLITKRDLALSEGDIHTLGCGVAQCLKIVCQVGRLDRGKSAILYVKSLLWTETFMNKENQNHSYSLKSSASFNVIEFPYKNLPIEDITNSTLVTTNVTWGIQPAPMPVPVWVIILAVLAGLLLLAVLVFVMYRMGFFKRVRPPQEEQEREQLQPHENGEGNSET
UniProt P05106: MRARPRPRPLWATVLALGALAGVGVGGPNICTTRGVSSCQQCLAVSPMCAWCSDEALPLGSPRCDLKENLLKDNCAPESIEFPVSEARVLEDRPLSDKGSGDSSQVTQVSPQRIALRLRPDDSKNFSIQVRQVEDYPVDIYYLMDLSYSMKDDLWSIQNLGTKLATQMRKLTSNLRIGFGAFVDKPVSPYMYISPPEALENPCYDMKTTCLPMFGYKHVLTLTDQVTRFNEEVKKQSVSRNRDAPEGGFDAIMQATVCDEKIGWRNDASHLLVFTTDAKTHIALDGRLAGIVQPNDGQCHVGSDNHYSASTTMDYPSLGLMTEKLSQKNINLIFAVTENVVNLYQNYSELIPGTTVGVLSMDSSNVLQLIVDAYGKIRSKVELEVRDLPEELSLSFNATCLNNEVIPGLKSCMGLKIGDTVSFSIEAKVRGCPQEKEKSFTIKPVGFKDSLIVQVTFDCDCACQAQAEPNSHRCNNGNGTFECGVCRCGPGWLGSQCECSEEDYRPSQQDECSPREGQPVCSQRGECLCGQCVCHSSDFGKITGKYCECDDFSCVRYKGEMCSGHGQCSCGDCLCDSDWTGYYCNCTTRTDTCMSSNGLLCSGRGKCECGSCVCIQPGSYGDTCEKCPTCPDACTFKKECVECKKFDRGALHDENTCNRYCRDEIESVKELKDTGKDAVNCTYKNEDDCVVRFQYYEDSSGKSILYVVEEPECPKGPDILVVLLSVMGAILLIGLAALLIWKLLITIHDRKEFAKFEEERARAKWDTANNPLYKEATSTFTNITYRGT
UniProt P18084: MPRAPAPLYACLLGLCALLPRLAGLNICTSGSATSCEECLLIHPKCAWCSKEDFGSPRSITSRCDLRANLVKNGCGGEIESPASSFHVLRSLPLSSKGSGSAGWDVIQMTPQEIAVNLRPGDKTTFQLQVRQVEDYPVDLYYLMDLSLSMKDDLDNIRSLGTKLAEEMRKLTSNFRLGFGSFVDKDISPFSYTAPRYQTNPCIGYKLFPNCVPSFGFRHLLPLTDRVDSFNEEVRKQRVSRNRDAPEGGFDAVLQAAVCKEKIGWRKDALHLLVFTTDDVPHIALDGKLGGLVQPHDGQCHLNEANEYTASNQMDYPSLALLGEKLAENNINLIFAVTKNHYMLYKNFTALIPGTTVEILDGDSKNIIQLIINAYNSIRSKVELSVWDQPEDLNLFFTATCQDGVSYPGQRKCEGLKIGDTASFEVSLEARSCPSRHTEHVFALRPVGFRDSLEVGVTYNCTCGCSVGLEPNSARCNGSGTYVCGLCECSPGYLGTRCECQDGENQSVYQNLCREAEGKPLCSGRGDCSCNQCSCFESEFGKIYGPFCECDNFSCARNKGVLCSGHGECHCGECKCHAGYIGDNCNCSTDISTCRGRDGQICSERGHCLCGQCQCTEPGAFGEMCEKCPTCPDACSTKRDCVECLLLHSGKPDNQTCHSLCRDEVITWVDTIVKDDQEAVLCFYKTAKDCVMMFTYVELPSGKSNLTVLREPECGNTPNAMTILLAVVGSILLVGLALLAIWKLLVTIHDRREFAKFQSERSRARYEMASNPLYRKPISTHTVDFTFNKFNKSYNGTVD

Columns and labels:
integrin αVβ3 (human) [1] = target: T1, integrin αVβ3 (human) (UniProt P06756+P05106); experiment: GST pull-down from surface-biotinylated Ch-1 lysate, Western blot
integrin αVβ5 (human) [2] = target: T2, integrin αVβ5 (human) (UniProt P06756+P18084); experiment: as above
integrin αVβ3 (human) [3] = target: T1, integrin αVβ3 (human); experiment: GST pull-down from surface-biotinylated Ch-1 lysate, Western blot (FIGS. 3D-K)
integrin αVβ5 (human) [4] = target: T2, integrin αVβ5 (human); experiment: as above

Measured: binding

GST-PIIBNP (GST fusion of human Type IIB collagen amino propeptide, exons 3-8) (from UniProt P02458 30-134) (ligand)
binds: all assays above
